# According to PubChem BioAssay AID1347423 (Functional Genomics Laboratory (NCATS/FGL), 2020):
# Out of some 52,000 sequences screened, about 210 (0.4%) were called active.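 Rule for the calls: active = gene whose silencing raises cell survival under the drug, median off-target-corrected z-score across its silencing RNAs 2 or more; inactive = the rest.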 This is one part of the list.
# Experiment: Resistance to Poly (ADP-Ribose) Polymerase inhibitor: Gene Identification via Genome-wide siRNA Screen
# Details: mouse BRCA2 R2336H ES cells, olaparib, CellTiter-Glo viability; active compounds read high
# In short: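 Genome-wide siRNA screen (3 siRNAs/gene, 20 nM) in mouse ES cells carrying hypomorphic BRCA2 R2336H; olaparib 500 nM added 48 h post-transfection, CellTiter-Glo viability 72 h later. Normalized to plate-median negative control; MAD z-scores, gene median, seed-adjusted.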
row,Sequence,z-score
1,GCACCUACACCGCUUACAUTT against 2610511E22Rik,inactive: -0.628
2,GGAAUACCAGGCCUUCCUUTT against Galgt1,inactive: 0.447
3,GGAAAAAUGAGGAAGAUGATT against 6430548M08Rik,inactive: -0.308
4,GGACAAGAAAAAGAAACGATT against 2610020O08Rik,inactive: -0.314
5,GGACGUGCUACAUUUGAAATT against BC066107,inactive: -1.06
6,GGUGUCAUGGACGGAAGCUTT against Cryzl1,inactive: -0.0922
7,CCAUUCAUGUGUGUUCAAUTT against Zfp472,inactive: 0.418
8,GGUCCCAGUCUAUGAAAACTT against A030010B05Rik,inactive: 1.2
9,GGUACCUCUACACAGAUGATT against Fgf21,inactive: -0.674
10,CCCUUGGAGGAAGCUAACUTT against Pde2a,active: 1.27
11,GGCAAGAUUACUGUUGUAGTT against 1110007M04Rik,inactive: 0.173
12,CGGAGCAAAUUAGGCUCUUTT against 4930402H24Rik,inactive: 0.451
13,GGGAAUUAGGGCUCAAUGATT against D330023I21Rik,inactive: -1.13
14,CCCUAUUUGUGAGAAUGAATT against Gldc,inactive: 0.166
15,GCCACAAGAUUCAGACCCATT against Elac2,inactive: -0.54
16,GGGCGUGAAUUCAGAGAUUTT against Pcdhgb5,inactive: -0.457
17,GGAUGAUCAUUUUGUUGCATT against 2700085E05Rik,inactive: 0.217
18,CCUCCAUGCUUGUUGUAGCTT against Olfr1031,inactive: 0.95
19,GGAGGAUGUCUUACCAUGGTT against A830053O21Rik,inactive: 2.03
20,GGUUUCCAGAAGAAGGUUCTT against 1700009P03Rik,inactive: 0.749
21,GGUGGAAAAUGGUUGGUUUTT against Mfap3,inactive: 0.214
22,GGCCUUUAACUUGUAAAUATT against Hlx1,inactive: -0.0976

row,Sequence,z-score
1,GGAGCUUGCUGGAUUCAUATT against 6330407D12Rik,inactive: 0.315
2,GGUGUAUAGCUGUUGUGGGTT against 2010308M01Rik,inactive: 0.0946
3,GGGUUUUUUCAACCAGAAUTT against Hyal2,inactive: 0.779
4,CCUGUGCACUGAAAGCACGTT against Mogat2,inactive: 0.831
5,GGCUCGGUUUCAGUGUACUTT against Zfp371,inactive: 1.41
6,GCCAAUAAAGUCGGUGAAATT against E130307C13,inactive: -1.08
7,GGCUAUCAUGUUACCUAGGTT against Olfr25,inactive: 0.88
8,GGUGAAGAGAGGUUUUUUUTT against Siat8b,inactive: 0.691
9,GGAAAAGUGGCUUUCAUUATT against Decr1,inactive: -0.378
10,CCUAGCCUAGCUUGGAGAGTT against Fbxl12,inactive: -0.0387
11,GGCUGCUAUCAUGGAAUUATT against Ppp2cb,inactive: -0.876
12,CGUAGCUAUUCUGGUUGUCTT against H2-Q6,inactive: -1.18
13,GGAAGAGAUAUCUGAACUUTT against 1110030H02Rik,inactive: 2.17
14,GGGAGCAGUCUUCCCUCAUTT against Cox8a,inactive: -1.35
15,GGAAAGAACGACCAUAUUUTT against Pik3cb,inactive: -0.501
16,GCUUCGAGAACUUUCUCCCTT against Nrtn,inactive: 0.164
17,GCAAGUGCACAUUAACCGGTT against Ptprr,inactive: 0.916
18,GGCGGAAAUUGUGAAGAGGTT against Aes,inactive: -2.11
19,GUUCGGUACAACUUUUCUGTT against Alx4,inactive: 0.749
20,CGACAUCGAAGACAUGCUCTT against Srebf1,inactive: 0.194
21,CGAUCUAUAUGAUGGGUGUTT against Olfr609,inactive: 0.862
22,GGUACAACUGCUCAUUUUUTT against 4930418P06Rik,inactive: -0.202

# Reformatted as tab-separated lines: entries from further up
row	Sequence	z-score
10	CCCUUGGAGGAAGCUAACUTT against Pde2a	active: 1.27
11	GGCAAGAUUACUGUUGUAGTT against 1110007M04Rik	inactive: 0.173
12	CGGAGCAAAUUAGGCUCUUTT against 4930402H24Rik	inactive: 0.451
13	GGGAAUUAGGGCUCAAUGATT against D330023I21Rik	inactive: -1.13
14	CCCUAUUUGUGAGAAUGAATT against Gldc	inactive: 0.166
15	GCCACAAGAUUCAGACCCATT against Elac2	inactive: -0.54
16	GGGCGUGAAUUCAGAGAUUTT against Pcdhgb5	inactive: -0.457
17	GGAUGAUCAUUUUGUUGCATT against 2700085E05Rik	inactive: 0.217
18	CCUCCAUGCUUGUUGUAGCTT against Olfr1031	inactive: 0.95
19	GGAGGAUGUCUUACCAUGGTT against A830053O21Rik	inactive: 2.03
20	GGUUUCCAGAAGAAGGUUCTT against 1700009P03Rik	inactive: 0.749
21	GGUGGAAAAUGGUUGGUUUTT against Mfap3	inactive: 0.214

# Later entries

row,Sequence,z-score
1,GGUCAAAAACCACAGAAUATT against Mobk1b,inactive: 0.382
2,GGAGCAGGAAUCAUUGACGTT against Chi3l3,inactive: 0.454
3,GGAAAAGCAGAGAAGAUAUTT against 6620401K05Rik,inactive: -3.29
4,GGUUUCGUAUAAAUUCUCUTT against Ank,inactive: -0.243
5,CCAUUCGGACCAAAGUGUATT against 4930563C04Rik,inactive: -1.48
6,GGUUGGUUAAUCCAACCAGTT against Fprl1,inactive: 1.54
7,GGACUAAGCCUGAAUGUGUTT against Zdhhc5,inactive: -0.814
8,GGAUGACUUGAUUAUCUUUTT against Adrm1,inactive: 0.0749
9,CGUUUUCACAUUCGGUGGATT against Akp2,inactive: -0.0494
10,GGCACUUAAGUUUCAUAAGTT against Qars,inactive: -0.32
11,GGAAAUCGAUAGUUUCUUCTT against Olfr1302,inactive: 0.458
12,GCCUUGACCUGAUUUCUACTT against Tas2r131,inactive: -0.0568
13,GGUGCCCUACAGUGAGAUATT against Rpl13,inactive: -2.33
14,GGCGGGUACAUAAGAAUCUTT against Tusc2,inactive: 1.83
15,GGAGUCUGUGGAUAGUGUATT against Creb1,inactive: -1.74
16,GGUAAUCACACUCAGUGUCTT against 1810043G02Rik,inactive: 0.16
17,GCAAAAGGGAUUCCUCGAUTT against Zdhhc14,inactive: -0.241
18,GGAACAAGCAAGUCAAACATT against Olfr770,inactive: 0.134
19,GGUUUUUGCCAGUAAUAACTT against B4galt4,inactive: 0.665
20,GCAGCUAAGGUAUCUUCAUTT against 9930021J03Rik,inactive: -0.811
21,GGGUGAGGAGACAGAAUUCTT against Dnajc5,inactive: -0.0109
